Structures are written as SMILES. Where a name gives a salt, the structure may show the parent alone. Read-outs that look alike come from different tables or passages of the source.

Series [1] is described as follows: In vivo pharmacokinetics after oral administration to rats. The following applies: female, albino, rat, plasma, 5 mg AT per rat, 0.5 mL aqueous dispersion equivalent to 10 mg/mL AT, fasted 12 h.
For series [2] the following is noted: cited from earlier work.
The nature of series [3]: Acidic degradation studies (1 N HCl, 80° C.). It counts as physicochemical. The conditions noted are these: 4 h time point. The procedure:
Acidic degradation studies: Stability of the drug and the formulation in conditions simulating the gastric environment was determined by adding 10 µg of AT and CH-AT nano-conjugate to 10 mL of 1 N HCl and mixture was refluxed at 80° C. At designated time points, 3 mL of the sample was withdrawn and assayed for drug concentration by UHPLC method as described below.
UHPLC analysis: AT was analyzed by UHPLC with a Waters Acquity™ UPLC system (Serial No #F09 UPB 920 M; Model Code #UPB; Waters, MA, USA). Chromatographic separation was performed on an Acquity UPLC BEH C18 (100 mm×2.1 mm, 1.7 lm) column. The mobile phase was composed of 0.05 M NaH2PO4 buffer:methanol (30:70 (v/v)), adjusted to a pH of 5.1 and a flow rate of 1.0 mL/min. The detection wavelength was set at 247 nm and the retention time was 3.9 min. For the analysis of the samples from receptor solution, aliquots of 20 µL from each sample were injected via the manual injector into a HPLC system. Plasma samples were first extracted with ethyl acetate, vortexed and centrifuged at 10,000 rpm for 15 min. The supernatant was evaporated to dryness and the residue was reconstituted with the mobile phase. All the samples were filtered through a 0.11 μm pore size membrane filter before injection. The assay was linear (r^2=0.9995) in the concentration range of 0.01-50 μg/mL with a detection limit of 0.005 μg/mL. […]

Consider `CC(C)c1c(C(=O)Nc2ccccc2)c(-c2ccccc2)c(-c2ccc(F)cc2)n1CC[C@@H](O)C[C@@H](O)CC(=O)O` [AT, [R—(R/,R/)]-2-(4-fluorophenyl)-b,d-dihydroxy-5-(1-methylethyl)-3-phenyl-4-[(phenylamino)carbonyl]-1H-pyrrole-1-heptanoic acid, calcium salt (2:1) trihydrate], for which the Tmax (as a rule, the time at which the peak concentration occurs) in series [1] was 2 h. In series [1] (mean, n = 6), the AUC(0-inf) – broadly, total exposure, with the tail of the curve extrapolated – was found to be 11900 ng·h/mL; the AUC(0-t) (commonly exposure summed from dosing to a finite time, without extrapolation to infinity) stood at 8240 ng·h/mL; the Cmax (as a rule, the peak of the concentration-time curve) is 583 ± 55.5 ng/mL. In series [2] (administration with food), the “reduction in AUC (extent of absorption)” value is 9% and the “reduction in Cmax (rate of absorption)” value is listed as 25%. In series [2] (after oral administration), the “time to reach peak concentrations (tmax)” value is 1 to 2 h. In series [2] (evening dose administration), the “reduction in AUC (extent of absorption)” value is given as 30% and the “reduction in Cmax (rate of absorption)” value is reported as 30%. In addition, the “time to maximum plasma concentration (Tmax)” value in series [2] (oral) was 1 to 2 h. Further, the “acidic degradation of drug” value in series [3] is given as “complete drug degradation”.

The record behind these values is patent publication US20150202321A1, “COMPOSITIONS COMPRISING CHITOSAN-DRUG CONJUGATES AND METHODS OF MAKING AND USING THE SAME” (NEWGEN BIOPHARMA CORP., priority 2012, published 2015).
